Measurements reported in article PMC4695189.
These are yes or no findings as the source states them, for the method shown. Binding seen in cells or lysates may run through a third protein. Some entries that bind do so weakly or less than the wild type.

The chains behind the UniProt entries cited, without tags or fusion partners.
UniProt Q8NFU7: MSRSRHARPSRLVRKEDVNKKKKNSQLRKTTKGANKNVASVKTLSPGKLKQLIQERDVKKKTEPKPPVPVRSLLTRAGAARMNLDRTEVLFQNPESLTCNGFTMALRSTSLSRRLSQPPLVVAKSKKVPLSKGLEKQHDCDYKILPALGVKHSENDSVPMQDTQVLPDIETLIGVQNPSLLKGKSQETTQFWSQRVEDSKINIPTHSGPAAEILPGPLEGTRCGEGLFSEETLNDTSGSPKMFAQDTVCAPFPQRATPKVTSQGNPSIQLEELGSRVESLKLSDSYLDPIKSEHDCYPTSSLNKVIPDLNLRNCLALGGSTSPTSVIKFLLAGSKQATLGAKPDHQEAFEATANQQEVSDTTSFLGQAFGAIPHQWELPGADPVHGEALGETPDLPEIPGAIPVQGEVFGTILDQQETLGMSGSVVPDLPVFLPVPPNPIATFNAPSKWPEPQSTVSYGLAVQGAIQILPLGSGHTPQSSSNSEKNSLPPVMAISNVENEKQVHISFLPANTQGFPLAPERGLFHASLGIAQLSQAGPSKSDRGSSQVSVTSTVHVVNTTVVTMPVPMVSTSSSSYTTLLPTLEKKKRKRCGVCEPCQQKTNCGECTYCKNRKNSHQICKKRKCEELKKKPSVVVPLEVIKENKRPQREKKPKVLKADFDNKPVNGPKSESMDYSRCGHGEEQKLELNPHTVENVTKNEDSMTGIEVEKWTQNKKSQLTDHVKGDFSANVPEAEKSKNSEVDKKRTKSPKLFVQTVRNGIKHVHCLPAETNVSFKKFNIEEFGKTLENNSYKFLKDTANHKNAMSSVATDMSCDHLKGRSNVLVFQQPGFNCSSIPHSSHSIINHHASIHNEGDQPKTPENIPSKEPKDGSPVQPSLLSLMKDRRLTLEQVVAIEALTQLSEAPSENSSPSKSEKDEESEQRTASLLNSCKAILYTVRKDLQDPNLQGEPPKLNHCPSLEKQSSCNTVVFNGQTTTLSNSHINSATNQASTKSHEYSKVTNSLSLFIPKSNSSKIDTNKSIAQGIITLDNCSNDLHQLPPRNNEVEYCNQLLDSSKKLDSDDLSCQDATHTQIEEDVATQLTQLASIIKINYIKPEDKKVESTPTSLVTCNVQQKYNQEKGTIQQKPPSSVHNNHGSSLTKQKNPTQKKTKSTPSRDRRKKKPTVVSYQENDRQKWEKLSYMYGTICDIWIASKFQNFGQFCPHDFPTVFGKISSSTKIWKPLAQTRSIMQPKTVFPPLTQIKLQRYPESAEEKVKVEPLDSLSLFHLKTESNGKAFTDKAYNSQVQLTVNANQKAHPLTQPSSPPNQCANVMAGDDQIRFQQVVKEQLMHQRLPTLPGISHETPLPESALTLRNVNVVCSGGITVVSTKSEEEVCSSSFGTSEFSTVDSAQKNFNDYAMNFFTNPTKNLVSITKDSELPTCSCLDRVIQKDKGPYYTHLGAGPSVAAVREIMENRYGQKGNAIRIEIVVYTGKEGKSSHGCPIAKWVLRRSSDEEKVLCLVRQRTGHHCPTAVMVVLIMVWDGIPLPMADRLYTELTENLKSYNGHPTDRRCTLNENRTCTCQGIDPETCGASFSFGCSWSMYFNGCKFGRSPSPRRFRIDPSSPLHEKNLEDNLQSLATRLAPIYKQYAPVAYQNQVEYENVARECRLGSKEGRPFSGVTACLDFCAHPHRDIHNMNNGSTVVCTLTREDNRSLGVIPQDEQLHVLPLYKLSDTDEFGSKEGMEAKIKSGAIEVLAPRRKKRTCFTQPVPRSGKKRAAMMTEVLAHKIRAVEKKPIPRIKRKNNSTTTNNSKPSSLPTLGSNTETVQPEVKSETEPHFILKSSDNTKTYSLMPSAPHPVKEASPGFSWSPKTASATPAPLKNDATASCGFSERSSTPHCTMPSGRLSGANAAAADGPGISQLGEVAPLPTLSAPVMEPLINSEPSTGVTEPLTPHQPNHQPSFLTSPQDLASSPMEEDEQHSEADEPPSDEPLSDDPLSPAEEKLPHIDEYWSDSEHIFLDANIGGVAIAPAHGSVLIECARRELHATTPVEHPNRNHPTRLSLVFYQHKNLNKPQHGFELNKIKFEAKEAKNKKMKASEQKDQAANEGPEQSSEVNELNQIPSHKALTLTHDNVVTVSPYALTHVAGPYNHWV
UniProt P09874: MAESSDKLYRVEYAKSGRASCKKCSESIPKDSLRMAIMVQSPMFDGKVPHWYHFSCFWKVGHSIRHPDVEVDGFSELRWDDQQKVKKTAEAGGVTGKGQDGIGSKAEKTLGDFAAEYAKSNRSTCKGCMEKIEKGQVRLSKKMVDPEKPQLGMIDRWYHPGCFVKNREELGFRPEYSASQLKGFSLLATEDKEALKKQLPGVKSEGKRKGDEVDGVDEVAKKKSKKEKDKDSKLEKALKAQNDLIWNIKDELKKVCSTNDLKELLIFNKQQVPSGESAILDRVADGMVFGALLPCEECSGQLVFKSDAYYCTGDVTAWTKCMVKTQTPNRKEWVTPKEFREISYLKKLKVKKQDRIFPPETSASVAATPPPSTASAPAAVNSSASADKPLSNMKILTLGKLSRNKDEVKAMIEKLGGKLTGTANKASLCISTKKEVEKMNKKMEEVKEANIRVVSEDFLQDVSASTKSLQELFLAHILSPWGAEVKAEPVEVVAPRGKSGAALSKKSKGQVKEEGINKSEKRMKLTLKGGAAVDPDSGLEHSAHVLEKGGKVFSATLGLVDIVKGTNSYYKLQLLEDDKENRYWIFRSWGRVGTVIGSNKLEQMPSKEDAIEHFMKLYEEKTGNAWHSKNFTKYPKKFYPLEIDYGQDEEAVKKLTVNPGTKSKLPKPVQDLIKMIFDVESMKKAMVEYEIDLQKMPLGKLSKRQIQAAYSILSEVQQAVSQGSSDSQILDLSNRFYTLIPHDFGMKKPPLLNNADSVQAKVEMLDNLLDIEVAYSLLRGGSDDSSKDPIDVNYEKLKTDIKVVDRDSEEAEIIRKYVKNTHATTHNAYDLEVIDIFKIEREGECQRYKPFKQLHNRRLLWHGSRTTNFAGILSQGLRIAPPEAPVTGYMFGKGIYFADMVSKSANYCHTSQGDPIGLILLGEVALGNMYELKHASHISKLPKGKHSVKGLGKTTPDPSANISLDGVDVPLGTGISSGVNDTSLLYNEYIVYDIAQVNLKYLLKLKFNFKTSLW

Biological target: TET1 protein (Ten-eleven-translocation 1) (human (endogenous in HEK293T)) (UniProt Q8NFU7)
Assay: co-IP; anti TET1 or anti PARP-1 antibodies on nuclear lysates of HEK293T treated or not with ABT-888 for 6 hrs; 150 mM NaCl, 0.5% NP-40, 1% glycerol, 4°C; Western blot

Substance: PARP-1/ARTD1 (poly(ADP-ribose) polymerase 1; ADP-ribosyltransferase diphtheria toxin-like 1) (from UniProt P09874 1-1014) (enzyme)
- binding: binds
